Results from PMC12667460.

Molecular target: T1, ZGPAT (UniProt Q8N5A5)
T1 sequence (looked up, limits assumed): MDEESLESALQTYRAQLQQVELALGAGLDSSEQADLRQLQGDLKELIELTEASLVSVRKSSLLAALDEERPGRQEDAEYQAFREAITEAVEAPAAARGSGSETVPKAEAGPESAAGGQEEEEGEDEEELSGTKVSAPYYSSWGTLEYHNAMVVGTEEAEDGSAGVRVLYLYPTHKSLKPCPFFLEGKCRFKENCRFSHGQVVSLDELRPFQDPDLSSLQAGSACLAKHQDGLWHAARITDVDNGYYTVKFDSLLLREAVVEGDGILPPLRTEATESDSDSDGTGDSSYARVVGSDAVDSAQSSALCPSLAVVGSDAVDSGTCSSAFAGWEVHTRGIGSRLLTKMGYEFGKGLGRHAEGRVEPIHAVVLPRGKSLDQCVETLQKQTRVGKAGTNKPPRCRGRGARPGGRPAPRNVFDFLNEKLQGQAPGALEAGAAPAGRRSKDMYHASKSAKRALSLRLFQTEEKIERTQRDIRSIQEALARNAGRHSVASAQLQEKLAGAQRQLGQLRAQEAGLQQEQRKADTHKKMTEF
Assay: EMSA supershift
Details: HEK293T nuclear extract, anti-ZGPAT; EMSA with HEK293T nuclear extract, biotin probe, chemiluminescent detection; RNA pull-down with HEK293T lysate; protein in an extract

Sequence: TCGCGGTGGTGGTAATGTGAGTGAGTTTGTC (double strand) [CNTNAP3 hot/cold EMSA probe (ZGPAT motif)]
- binding result: binds

The exact form of at least one protein or probe is not confirmed. Where cells or extracts were used, other partners may take part. Tags and fusion partners may be left off the protein sequences shown.
